Measurements taken from paper PMC7819943, “Rice protein-binding microarrays: a tool to detect cis-acting elements near promoter regions in rice”.
The other results are listed elsewhere or left out.

Sequences of proteins named here, by UniProt entry; tags and fusion partners are left off.
UniProt Q0JBA9, entry or part of it: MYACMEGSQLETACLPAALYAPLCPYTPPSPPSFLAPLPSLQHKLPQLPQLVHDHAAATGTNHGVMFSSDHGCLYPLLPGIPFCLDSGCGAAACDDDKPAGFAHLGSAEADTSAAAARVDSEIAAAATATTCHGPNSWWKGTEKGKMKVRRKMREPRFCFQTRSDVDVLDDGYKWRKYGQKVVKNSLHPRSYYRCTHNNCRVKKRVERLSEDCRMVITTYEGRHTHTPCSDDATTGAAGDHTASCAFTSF

What follows are sequences tested against OsWRKY34 (Oryza sativa, UniProt Q0JBA9 1-250) (assay: protein-binding microarray (RPBM); PBS, 2% BSA, 51.3 ng/ul salmon testes DNA, 50 uM zinc acetate, 200 nM TF, 25 C, 1 h; high values mean tight binding). Conditions: protein: recombinant; tags: N-terminal polyhistidine and DsRed monomer fusion (pET32a); label: CyDye5-dUTP incorporated in the synthesized complementary strand; 3' TTTTT single-stranded linker to array surface; dsDNA, one strand shown.
In short: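 Binding signal here means per-feature fluorescence intensity in arbitrary units. The values were read on an Axon 4000B scanner after a custom Agilent array, double-stranded by primer extension with Cy5-dUTP, was incubated with 200 nM protein at 25 °C for 1 h in PBS with 2% BSA, salmon testes DNA and 50 µM zinc acetate, then washed. The proteins were transcription factors with an N-terminal polyhistidine tag and DsRed, expressed in E. coli BL21-CodonPlus and purified on Ni–NTA.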
With “GGTTTGTTCATTACTCTGCCTACATTTTGTTTAAAGGGAACGGAGTCACCTAGTGCAG” the binding signal was 11200 fluorescence intensity (a.u.). With “GGTTTTGGAGAGCGGTTTCACTGACGTGGCAGTGTTGACCCGGAGTCACCTAGTGCAG” the binding signal was 8090 fluorescence intensity (a.u.). With “TCATATTCCTACCCCATTTACTCCACAGTTTTATCTTATCCGGAGTCACCTAGTGCAG” the binding signal was 8260 fluorescence intensity (a.u.). For “CGCCTCGTCCTCTCCTTATCTCCTGTCTTTCGTGGCATCTCGGAGTCACCTAGTGCAG”, the binding signal was 8910 fluorescence intensity (a.u.). With “GGCGGCCGGGGCTTGTGTCGATCTGTTGGAGGAATTGTCTCGGAGTCACCTAGTGCAG” the binding signal was 14100 fluorescence intensity (a.u.). For “CGGATGCCGTCCCTGCCGCCGGCCCACGTCGAGCTCATCCCGGAGTCACCTAGTGCAG”, the binding signal was 8260 fluorescence intensity (a.u.). In the case of “GATCTTGTCGTTGTTGTCGATGGAGGATAGCGGGAGGGAGCGGAGTCACCTAGTGCAG”, the binding signal is reported as 9530 fluorescence intensity (a.u.). For “AGCCTACCAGCTGCACCGCAAATGCCGTGTACTGCTTTCTCGGAGTCACCTAGTGCAG”, the binding signal was 8340 fluorescence intensity (a.u.). With “AACACGTCTCCTATTTAGATTCGTAATATTATGATGCATTCGGAGTCACCTAGTGCAG” the binding signal was 8370 fluorescence intensity (a.u.). With “ATTTGTGATATGCCACCCTGACCCACATGTCATTGACTCACGGAGTCACCTAGTGCAG” the binding signal was 9320 fluorescence intensity (a.u.). For “GGGACAACGGGTGAACTTATTCCACATCCAATTAACAGCGCGGAGTCACCTAGTGCAG”, the binding signal was 8070 fluorescence intensity (a.u.). In the case of “TCCATCACATCGTTCCAATTTCAACCAAACTTTCAATTTTCGGAGTCACCTAGTGCAG”, the binding signal is reported as 9230 fluorescence intensity (a.u.). In the case of “TTGTATGATGGCCTTAAGGATGTTCTTCTTGCGCTGCTAACGGAGTCACCTAGTGCAG”, the binding signal is reported as 9820 fluorescence intensity (a.u.). In the case of “CACTACATAAACGCTCCCACCACCACACACCATTATTACTCGGAGTCACCTAGTGCAG”, the binding signal is reported as 10100 fluorescence intensity (a.u.). In the case of “GCTTACTTGCAGCTAATCTGCCTCGCATCAGCGCACACGACGGAGTCACCTAGTGCAG”, the binding signal is reported as 8500 fluorescence intensity (a.u.). “CACCCCACACCGCCCCGCCGCCTCCACTTCTCCCGGCGGTCGGAGTCACCTAGTGCAG” was tested, and the binding signal was 8600 fluorescence intensity (a.u.). “GGCTTTGTAAGTCTTTGTTCACATTATTTGCTGGGTCTAACGGAGTCACCTAGTGCAG” was tested, and the binding signal was 8800 fluorescence intensity (a.u.). For “CCCTTTAATTTTCCTTTTTCATATTTTTTTTTCACATTTTCGGAGTCACCTAGTGCAG”, the binding signal was 9000 fluorescence intensity (a.u.). In the case of “TTCCCTACACCACACACCAACACACACAAACCATTGCAACCGGAGTCACCTAGTGCAG”, the binding signal is reported as 9810 fluorescence intensity (a.u.). “ATCAGATGGATCTGCTCCCTTTTTTTATGTAATTGTTTGTCGGAGTCACCTAGTGCAG” was tested, and the binding signal was 8200 fluorescence intensity (a.u.). “CTTGTTCCGTTTTCGCAATGTGTTCGCTATAAATATCATACGGAGTCACCTAGTGCAG” was tested, and the binding signal was 9270 fluorescence intensity (a.u.). In the case of “ATACATGCCGTCGAATAATTATCTGAATCGTCCATTATCCCGGAGTCACCTAGTGCAG”, the binding signal is reported as 9300 fluorescence intensity (a.u.). In the case of “CCTCCTCCAGCGCCCGCTCTTCTCGTCCCTCGCCGGCGGCCGGAGTCACCTAGTGCAG”, the binding signal is reported as 8160 fluorescence intensity (a.u.). For “CAACTTCTTGCTCTTTAACAGCGTAACTTACTTTGTATTGCGGAGTCACCTAGTGCAG”, the binding signal was 9520 fluorescence intensity (a.u.). With “TCTGCGCTCCCGCATGCCGGCCGCTGAATCATCGTCAATCCGGAGTCACCTAGTGCAG” the binding signal was 9000 fluorescence intensity (a.u.). In the case of “GCACATATAATCACCGGTTCTTCTGTAATGCAATGATACGCGGAGTCACCTAGTGCAG”, the binding signal is reported as 8730 fluorescence intensity (a.u.). “CTACGCGATGCCATCTCACCGATCCCCACCGCTCGCATCCCGGAGTCACCTAGTGCAG” was tested, and the binding signal was 11700 fluorescence intensity (a.u.). With “TTGGTGGGCCGTTATTTTGTTTGGGCTGGATTTGCACGTTCGGAGTCACCTAGTGCAG” the binding signal was 11700 fluorescence intensity (a.u.). “TTAACCCCTAGCATAGTTTTGATAGACCTCGTACAAATCTCGGAGTCACCTAGTGCAG” was tested, and the binding signal was 8300 fluorescence intensity (a.u.). For “CTCTGCTCTCACTTGAACACCTGGTCCCATGGATTGCCTACGGAGTCACCTAGTGCAG”, the binding signal was 13900 fluorescence intensity (a.u.). In the case of “CCTTTTATTTTCGATCTTACTTATCATTCTTCTCCACCTTCGGAGTCACCTAGTGCAG”, the binding signal is reported as 8770 fluorescence intensity (a.u.). With “GATGGTGAGGTTGGCGTGTAGGTGCGGGCAGCTGTTGTTTCGGAGTCACCTAGTGCAG” the binding signal was 9450 fluorescence intensity (a.u.). For “TATGGTTTCTTGCTGATTTCTTATCTCTACCGGTGTTTATCGGAGTCACCTAGTGCAG”, the binding signal was 13300 fluorescence intensity (a.u.). With “ACATTTTGTGAGTCGGACCACCTATACCCTAAATTTTAGACGGAGTCACCTAGTGCAG” the binding signal was 10100 fluorescence intensity (a.u.). In the case of “CCGACCCAGATCCACCCGGATTCTTATCCCGTACGGCACCCGGAGTCACCTAGTGCAG”, the binding signal is reported as 8280 fluorescence intensity (a.u.). With “ACCCTATCGTATTTAATTTTCCATAATGACTATCCCTGCACGGAGTCACCTAGTGCAG” the binding signal was 9160 fluorescence intensity (a.u.). For “GCTGTTTCTCTCTCAACTGCTTCACACTGTTGCTCTCTTCCGGAGTCACCTAGTGCAG”, the binding signal was 11300 fluorescence intensity (a.u.). In the case of “GTCCTTGGGGCTCTATATATACCTCGTTTCTCCAGGCCGGCGGAGTCACCTAGTGCAG”, the binding signal is reported as 8400 fluorescence intensity (a.u.). In the case of “GATGGGAGACATGTTGCGTCGTTCCCTTACCGCACTGTAACGGAGTCACCTAGTGCAG”, the binding signal is reported as 8240 fluorescence intensity (a.u.). With “ATATTGCCTCTTCCATGCGCCCACTTGCTCGGTTGAACAACGGAGTCACCTAGTGCAG” the binding signal was 11800 fluorescence intensity (a.u.). In the case of “TCTCTCCAAGTCAAAGCGTGACCTGGTCGTTGACTTGAGACGGAGTCACCTAGTGCAG”, the binding signal is reported as 12400 fluorescence intensity (a.u.). For “CTAGGACATCATTTTGTTTGTCGTGTGTGCGCAACTGTTTCGGAGTCACCTAGTGCAG”, the binding signal was 8160 fluorescence intensity (a.u.). For “CTCCCCACCCTACCCCGTCGTCTCCGTTCGCGCGCATCCACGGAGTCACCTAGTGCAG”, the binding signal was 9730 fluorescence intensity (a.u.). With “ATCAATTTGTTATTGTGTGCCTCGGCTGATTCCTGGACGACGGAGTCACCTAGTGCAG” the binding signal was 8850 fluorescence intensity (a.u.). “GCTCGCTCGCTCGCTCGCTCCGTCTTGTGGTCGCCGCCGCCGGAGTCACCTAGTGCAG” was tested, and the binding signal was 9160 fluorescence intensity (a.u.). With “AGAACCCCGCATCCCACTTCTTCCAGGCTCCAGCTCTTCTCGGAGTCACCTAGTGCAG” the binding signal was 9110 fluorescence intensity (a.u.). “ATGCCTATGATGCCTATATCATGATTGTTATAATATTTTACGGAGTCACCTAGTGCAG” was tested, and the binding signal was 8600 fluorescence intensity (a.u.). “CCACAACTAACCTGTAGACTGTCTTGCACCACCTCCTGACCGGAGTCACCTAGTGCAG” was tested, and the binding signal was 9760 fluorescence intensity (a.u.). In the case of “TGTACTAGTTAGCTATATTTTGGGACGGGGAAGTATCTTACGGAGTCACCTAGTGCAG”, the binding signal is reported as 9930 fluorescence intensity (a.u.). With “GGTCATGGTTTTGGCACGCTTGGATTTGACGCCGCCGGCACGGAGTCACCTAGTGCAG” the binding signal was 9760 fluorescence intensity (a.u.). With “AAAATCGTCATTTAATGCCTATTACTTAGTTGGCCCTTGTCGGAGTCACCTAGTGCAG” the binding signal was 8050 fluorescence intensity (a.u.). For “TGAATTTTTTTTTCTTTTTCTTCCCTGCTCTCTCTATAATCGGAGTCACCTAGTGCAG”, the binding signal was 8030 fluorescence intensity (a.u.). “GGATAGATTTCATTTCGTATTAATGGGCTGTTCTTGGTTTCGGAGTCACCTAGTGCAG” was tested, and the binding signal was 8720 fluorescence intensity (a.u.). “CTGTCCTCACTGCATTAAGGGTTTTTTGGCCCCGTTTATTCGGAGTCACCTAGTGCAG” was tested, and the binding signal was 8080 fluorescence intensity (a.u.).
